# Results are given in words; binding and its absence hold for the method and conditions named. For part of these data: A result given as binding can be weak or reduced; the word gives no strength. For part of these data: In cells and extracts the contact can be indirect.
# Sequences of proteins named here, by UniProt entry; tags and fusion partners are left off. A change or cut given only in a name is not applied to a line headed by its entry.
# UniProt P21333: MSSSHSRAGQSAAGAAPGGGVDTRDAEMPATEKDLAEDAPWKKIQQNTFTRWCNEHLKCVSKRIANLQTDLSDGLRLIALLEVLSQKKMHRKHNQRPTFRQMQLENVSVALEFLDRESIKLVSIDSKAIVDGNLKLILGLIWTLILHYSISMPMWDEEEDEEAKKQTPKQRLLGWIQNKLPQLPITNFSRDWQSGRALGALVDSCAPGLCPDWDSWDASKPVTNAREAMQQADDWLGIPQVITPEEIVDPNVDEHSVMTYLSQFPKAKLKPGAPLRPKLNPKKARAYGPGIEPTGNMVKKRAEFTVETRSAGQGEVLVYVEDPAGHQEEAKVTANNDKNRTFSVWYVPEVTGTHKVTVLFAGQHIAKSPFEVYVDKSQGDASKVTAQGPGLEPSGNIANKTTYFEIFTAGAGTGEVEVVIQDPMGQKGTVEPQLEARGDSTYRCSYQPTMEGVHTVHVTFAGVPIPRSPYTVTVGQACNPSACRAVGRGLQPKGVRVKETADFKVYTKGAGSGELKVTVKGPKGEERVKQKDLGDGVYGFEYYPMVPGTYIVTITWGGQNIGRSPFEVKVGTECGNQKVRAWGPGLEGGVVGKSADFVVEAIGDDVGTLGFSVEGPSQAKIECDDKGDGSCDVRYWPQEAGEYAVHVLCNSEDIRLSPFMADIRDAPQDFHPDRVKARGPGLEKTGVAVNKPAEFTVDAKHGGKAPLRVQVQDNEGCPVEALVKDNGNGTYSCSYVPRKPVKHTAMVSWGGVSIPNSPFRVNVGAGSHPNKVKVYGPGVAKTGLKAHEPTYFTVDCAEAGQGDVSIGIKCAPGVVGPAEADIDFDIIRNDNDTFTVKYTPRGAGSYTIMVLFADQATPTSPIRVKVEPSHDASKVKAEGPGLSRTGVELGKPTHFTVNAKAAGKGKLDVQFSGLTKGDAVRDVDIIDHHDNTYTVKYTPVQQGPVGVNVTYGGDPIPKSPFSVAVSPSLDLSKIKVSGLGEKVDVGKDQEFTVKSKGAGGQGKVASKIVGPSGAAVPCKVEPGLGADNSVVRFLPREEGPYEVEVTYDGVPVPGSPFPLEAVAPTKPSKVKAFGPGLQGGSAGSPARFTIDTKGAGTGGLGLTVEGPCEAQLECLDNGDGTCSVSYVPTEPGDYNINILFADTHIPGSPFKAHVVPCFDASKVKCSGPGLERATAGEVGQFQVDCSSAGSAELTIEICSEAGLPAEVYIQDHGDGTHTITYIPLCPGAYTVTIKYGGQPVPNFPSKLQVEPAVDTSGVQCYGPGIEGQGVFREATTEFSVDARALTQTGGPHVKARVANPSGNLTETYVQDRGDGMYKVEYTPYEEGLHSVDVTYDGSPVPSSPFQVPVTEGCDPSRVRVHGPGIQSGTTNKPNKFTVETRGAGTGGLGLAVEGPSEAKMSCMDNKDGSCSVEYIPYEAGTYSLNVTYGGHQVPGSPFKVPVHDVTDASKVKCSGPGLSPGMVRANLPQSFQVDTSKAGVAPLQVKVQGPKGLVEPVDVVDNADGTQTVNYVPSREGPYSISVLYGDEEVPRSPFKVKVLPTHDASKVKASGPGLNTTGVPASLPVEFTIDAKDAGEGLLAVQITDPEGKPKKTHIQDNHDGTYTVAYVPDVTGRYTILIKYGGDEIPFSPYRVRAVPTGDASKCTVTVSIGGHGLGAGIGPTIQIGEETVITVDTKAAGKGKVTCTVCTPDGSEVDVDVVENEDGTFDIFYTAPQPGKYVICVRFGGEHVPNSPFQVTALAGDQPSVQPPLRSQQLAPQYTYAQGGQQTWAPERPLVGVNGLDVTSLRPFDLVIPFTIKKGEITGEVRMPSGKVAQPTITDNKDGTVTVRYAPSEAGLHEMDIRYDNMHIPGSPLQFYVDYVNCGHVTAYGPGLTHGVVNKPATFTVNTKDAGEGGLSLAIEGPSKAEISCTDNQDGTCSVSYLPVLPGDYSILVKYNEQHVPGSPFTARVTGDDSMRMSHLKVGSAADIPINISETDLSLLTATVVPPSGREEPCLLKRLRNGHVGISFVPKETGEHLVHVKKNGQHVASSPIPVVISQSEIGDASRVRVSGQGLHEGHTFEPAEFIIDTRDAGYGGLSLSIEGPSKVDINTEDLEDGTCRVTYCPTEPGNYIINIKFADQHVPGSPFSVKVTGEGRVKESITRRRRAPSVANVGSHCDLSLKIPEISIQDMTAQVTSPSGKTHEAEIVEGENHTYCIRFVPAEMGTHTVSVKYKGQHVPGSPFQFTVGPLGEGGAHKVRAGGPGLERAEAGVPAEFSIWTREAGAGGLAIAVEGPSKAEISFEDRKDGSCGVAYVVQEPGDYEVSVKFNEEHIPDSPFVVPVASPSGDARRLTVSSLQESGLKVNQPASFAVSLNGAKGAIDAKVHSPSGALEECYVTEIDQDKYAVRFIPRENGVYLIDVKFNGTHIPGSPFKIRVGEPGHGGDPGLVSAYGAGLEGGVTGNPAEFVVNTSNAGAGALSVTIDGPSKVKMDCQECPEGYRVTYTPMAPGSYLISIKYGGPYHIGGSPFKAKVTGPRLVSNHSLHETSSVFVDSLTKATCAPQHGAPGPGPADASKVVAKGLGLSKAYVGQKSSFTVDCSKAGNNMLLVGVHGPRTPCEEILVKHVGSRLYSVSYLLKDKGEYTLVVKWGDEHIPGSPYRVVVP
# UniProt Q8BTM8: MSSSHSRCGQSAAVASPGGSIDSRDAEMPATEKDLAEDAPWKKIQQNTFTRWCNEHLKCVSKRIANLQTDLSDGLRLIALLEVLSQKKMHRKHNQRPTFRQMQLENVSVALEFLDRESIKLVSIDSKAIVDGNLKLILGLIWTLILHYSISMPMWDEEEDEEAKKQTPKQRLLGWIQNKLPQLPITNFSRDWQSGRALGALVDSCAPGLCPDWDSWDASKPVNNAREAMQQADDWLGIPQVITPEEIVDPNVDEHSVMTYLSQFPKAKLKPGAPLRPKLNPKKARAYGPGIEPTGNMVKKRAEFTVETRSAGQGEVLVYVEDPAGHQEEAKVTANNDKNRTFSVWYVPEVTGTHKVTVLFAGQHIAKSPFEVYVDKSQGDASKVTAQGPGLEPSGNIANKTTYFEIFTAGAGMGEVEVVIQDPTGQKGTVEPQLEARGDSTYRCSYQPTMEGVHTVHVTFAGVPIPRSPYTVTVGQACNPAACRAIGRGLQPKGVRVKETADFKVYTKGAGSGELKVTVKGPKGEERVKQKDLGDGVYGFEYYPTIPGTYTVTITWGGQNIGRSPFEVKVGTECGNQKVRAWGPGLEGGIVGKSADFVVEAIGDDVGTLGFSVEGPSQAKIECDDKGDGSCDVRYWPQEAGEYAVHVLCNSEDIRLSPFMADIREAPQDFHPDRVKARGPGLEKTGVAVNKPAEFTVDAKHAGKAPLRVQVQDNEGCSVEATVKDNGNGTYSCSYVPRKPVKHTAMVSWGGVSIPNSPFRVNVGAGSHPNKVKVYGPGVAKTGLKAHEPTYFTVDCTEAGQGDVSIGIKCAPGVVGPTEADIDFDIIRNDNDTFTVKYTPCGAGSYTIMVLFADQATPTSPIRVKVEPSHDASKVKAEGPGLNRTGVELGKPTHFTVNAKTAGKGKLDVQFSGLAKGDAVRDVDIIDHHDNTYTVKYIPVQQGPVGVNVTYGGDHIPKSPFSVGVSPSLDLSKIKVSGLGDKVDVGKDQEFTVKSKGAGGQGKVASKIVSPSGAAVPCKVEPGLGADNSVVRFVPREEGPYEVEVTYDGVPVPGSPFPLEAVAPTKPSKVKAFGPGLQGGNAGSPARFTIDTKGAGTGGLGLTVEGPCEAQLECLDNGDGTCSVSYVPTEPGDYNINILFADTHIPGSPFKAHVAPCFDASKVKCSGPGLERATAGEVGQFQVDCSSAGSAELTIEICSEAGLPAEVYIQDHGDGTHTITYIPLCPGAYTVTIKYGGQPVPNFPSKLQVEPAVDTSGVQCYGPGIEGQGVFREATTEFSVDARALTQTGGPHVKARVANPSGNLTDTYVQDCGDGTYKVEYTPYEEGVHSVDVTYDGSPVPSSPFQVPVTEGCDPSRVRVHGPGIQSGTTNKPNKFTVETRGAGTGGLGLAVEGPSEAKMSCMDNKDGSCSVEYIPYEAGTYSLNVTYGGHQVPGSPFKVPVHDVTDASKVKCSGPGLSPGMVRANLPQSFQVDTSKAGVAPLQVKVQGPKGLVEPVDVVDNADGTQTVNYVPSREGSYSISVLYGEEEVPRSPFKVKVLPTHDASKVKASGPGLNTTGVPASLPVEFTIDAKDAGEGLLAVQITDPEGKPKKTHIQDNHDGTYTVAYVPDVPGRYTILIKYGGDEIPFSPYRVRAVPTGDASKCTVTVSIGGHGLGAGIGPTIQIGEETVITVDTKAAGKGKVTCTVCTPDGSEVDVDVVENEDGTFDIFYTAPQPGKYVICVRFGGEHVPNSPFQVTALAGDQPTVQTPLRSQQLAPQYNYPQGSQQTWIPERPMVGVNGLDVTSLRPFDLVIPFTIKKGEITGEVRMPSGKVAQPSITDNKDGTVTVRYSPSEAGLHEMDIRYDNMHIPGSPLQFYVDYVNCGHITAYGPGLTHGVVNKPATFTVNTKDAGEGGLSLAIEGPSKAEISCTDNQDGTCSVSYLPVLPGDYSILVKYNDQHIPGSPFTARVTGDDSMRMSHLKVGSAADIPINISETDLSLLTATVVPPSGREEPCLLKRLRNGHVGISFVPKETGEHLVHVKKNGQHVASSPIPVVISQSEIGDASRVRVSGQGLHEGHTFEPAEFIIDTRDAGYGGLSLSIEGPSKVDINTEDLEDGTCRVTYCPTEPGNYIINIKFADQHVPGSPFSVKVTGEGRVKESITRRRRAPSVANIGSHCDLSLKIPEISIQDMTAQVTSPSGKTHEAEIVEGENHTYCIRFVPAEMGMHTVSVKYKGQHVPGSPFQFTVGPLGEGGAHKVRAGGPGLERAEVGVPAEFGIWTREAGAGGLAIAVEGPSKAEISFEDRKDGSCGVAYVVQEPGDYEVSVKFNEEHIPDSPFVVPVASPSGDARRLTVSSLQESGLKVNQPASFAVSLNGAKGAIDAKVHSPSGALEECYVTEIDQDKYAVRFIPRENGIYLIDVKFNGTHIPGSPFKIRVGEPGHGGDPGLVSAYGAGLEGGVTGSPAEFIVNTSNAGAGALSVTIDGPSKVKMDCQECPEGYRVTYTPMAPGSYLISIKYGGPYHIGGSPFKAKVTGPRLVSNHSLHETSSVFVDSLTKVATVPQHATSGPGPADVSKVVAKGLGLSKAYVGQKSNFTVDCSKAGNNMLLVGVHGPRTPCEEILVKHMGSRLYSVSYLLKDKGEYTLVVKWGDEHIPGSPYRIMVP
# What was measured:
# [1] = target: R-Ras bait lacking the CAAX-box (BTM116-R-Ras-CAAX-) (human) (UniProt P10301); assay: two-hybrid; bait in pBTM116 in yeast strain L40, prey from a mouse embryo cDNA library in pVP16; growth on selective plates and β-gal filter-lift assay
# [2] = target: GST-FLNa repeats 1-10 (human) (UniProt P21333); assay: pull-down; GST fusion proteins of FLNa fragments incubated with M2 (FLNa-) cell total lysates; bound R-Ras detected by Western blotting; only the target purified
# [3] = target: His-tagged FLNaΔ3 (deletion of FLNa repeat 3) (UniProt P21333); assay: co-IP; M2 cells co-transfected, lysed 48 h post transfection, immunoprecipitated with anti-His conjugated IgG beads or IgG beads alone, immunoblotted with anti-R-Ras antibody
molecule,measurement,setting,value
VP16-FLNa (nucleotides 1699-1995) (from UniProt Q8BTM8) (domain or fragment),binding,[1],binds
"R-Ras in M2 (FLNa-) cell total lysate (protein, UniProt P10301 1-218) MSSGAASGTGRGRPRGGGPGPGDPPPSETHKLVVVGGGGVGKSALTIQFIQSYFVSDYDPTIEDSYTKICSVDGIPARLDILDTAGQEEFGAMREQYMRAGHGFLLVFAINDRQSFNEVGKLFTQILRVKDRDDFPVVLVGNKADLESQRQVPRSEASAFGASHHVAYFEASAKLRLNVDEAFEQLVRAVRKYQEQELPPSPPSAPRKKGGGCPCVLL",binding,[2],binds
"active R-Ras G38V (protein, UniProt P10301 1-218) MSSGAASGTGRGRPRGGGPGPGDPPPSETHKLVVVGGVGVGKSALTIQFIQSYFVSDYDPTIEDSYTKICSVDGIPARLDILDTAGQEEFGAMREQYMRAGHGFLLVFAINDRQSFNEVGKLFTQILRVKDRDDFPVVLVGNKADLESQRQVPRSEASAFGASHHVAYFEASAKLRLNVDEAFEQLVRAVRKYQEQELPPSPPSAPRKKGGGCPCVLL",binding,[3],no binding

# Source: article PMC2890414
